# In the supplement of paper PMC4683952:
# Counter-ions that a name gives are not always drawn. The list shows a part of the results. No stated cut-off is given here; in the data, active = 2.5 or more and inactive = the rest. Single values are uncertain here, since repeats match poorly.
# Tested on: Lgr5 (MarsCy1-Lgr5-EGFP, U2OS)
# Test: cell-surface Lgr5 expression (SCi1 fluorescence, background-subtracted) relative to WT control (fold of WT control); higher = more Lgr5 at the plasma membrane
# Conditions: U2OS MarsCy1-Lgr5-EGFP stable; treatment time: overnight; library: Prestwick; 20 µM
row,Structure (SMILES),cell-surface Lgr5 expression
1,CC[C@H]1OC(=O)[C@H](C)[C@@H](O[C@H]2C[C@@](C)(OC)[C@@H](O)[C@H](C)O2)[C@H](C)[C@@H](O[C@@H]2O[C@H](C)C[C@H](N(C)C)[C@H]2O)[C@](C)(O)C[C@@H](C)C(=O)[C@H](C)[C@@H](O)[C@]1(C)O [Erythromycin],inactive: 1.01
2,OCCN1CCN(CCCN2c3ccccc3Sc3ccc(C(F)(F)F)cc32)CC1 [Fluphenazine dihydrochloride],inactive: -0.412
3,CC(C)(Oc1ccc(CCNC(=O)c2ccc(Cl)cc2)cc1)C(=O)O [Bezafibrate],inactive: 0.822
4,c1ccc(CC2=NCCN2)cc1 [Tolazoline hydrochloride],inactive: 1
5,O=C1c2ccccc2C(=O)C1c1ccccc1 [Phenindione],inactive: 2.06
6,Clc1ccc2c(c1)C(N1CCNCC1)=Nc1ccccc1O2 [Amoxapine],inactive: 0.844
7,O=C(O)CCc1nc(-c2ccccc2)c(-c2ccccc2)o1 [Oxaprozin],inactive: 1.11
8,Cc1ccc(N(CC2=NCCN2)c2cccc(O)c2)cc1 [Phentolamine hydrochloride],inactive: 0.643
9,CCCSc1ccc2[nH]c(NC(=O)OC)nc2c1 [Albendazole],inactive: 0.829
10,Cc1c(Cl)cccc1Nc1ccccc1C(=O)O [Tolfenamic acid],inactive: 1.53
11,CO[C@H]1/C=C/O[C@@]2(C)Oc3c(C)c(O)c4c(O)c(c(/C=N/N5CCN(C)CC5)c(O)c4c3C2=O)NC(=O)/C(C)=C\C=C\[C@H](C)[C@H](O)[C@@H](C)[C@@H](O)[C@@H](C)[C@H](OC(C)=O)[C@@H]1C [Rifampicin],inactive: 1.84
12,C[C@]12CCC(=O)C=C1CC[C@@H]1[C@@H]2C(=O)C[C@@]2(C)[C@H]1CC[C@]2(O)C(=O)CO [Cortisone],inactive: 1.64
13,COCCCC/C(=N\OCCN)c1ccc(C(F)(F)F)cc1 [Fluvoxamine maleate],inactive: 0.733
14,O=C(O)C1CCCNC1 (racemic) [(±)-Nipecotic acid],inactive: 2.24
15,CN(C)[C@@H]1C(O)=C(C(N)=O)C(=O)[C@@]2(O)C(O)=C3C(=O)c4c(O)cccc4[C@@](C)(O)[C@H]3C[C@@H]12 [Tetracycline hydrochloride],inactive: 0.874
16,CC(=O)Oc1cc(C(F)(F)F)ccc1C(=O)O [Triflusal],inactive: 1.49
17,C[C@]12C=CC(=O)C=C1CC[C@@H]1[C@@H]2[C@@H](O)C[C@@]2(C)[C@H]1CC[C@]2(O)C(=O)CO [Prednisolone],active: 4.19
18,CS(=O)(=O)c1ccc([C@@H](O)[C@@H](CO)NC(=O)C(Cl)Cl)cc1 [Thiamphenicol],inactive: 1.35
19,CC(C)Cc1ccc([C@H](C)C(=O)O)cc1 [S-(+)-ibuprofen],inactive: 2
20,O=C(O)Cc1ccccc1Nc1c(Cl)cccc1Cl [Diclofenac sodium],active: 3.82
21,CN1CCN(CCCN2c3ccccc3Sc3ccc(S(=O)(=O)N(C)C)cc32)CC1 [Thioproperazine dimesylate],inactive: 1.29

row,Structure (SMILES),cell-surface Lgr5 expression
1,CC(=O)O[C@]1(C(C)=O)CC[C@H]2[C@@H]3C=C(C)C4=CC(=O)CC[C@@H]4[C@H]3CC[C@@]21C [Nomegestrol acetate],inactive: 1.93
2,NS(=O)(=O)c1cc2c(cc1Cl)N=C(CSCc1ccccc1)NS2(=O)=O [Benzthiazide],inactive: 1.97
3,O=C1C(CC[S+]([O-])c2ccccc2)C(=O)N(c2ccccc2)N1c1ccccc1 (stereo not drawn) [Sulfinpyrazone],inactive: 0.777
4,C#C[C@]1(OC(C)=O)CC[C@H]2[C@@H]3CCC4=C[C@@H](OC(C)=O)CC[C@@H]4[C@H]3CC[C@@]21C [Ethynodiol diacetate],inactive: 2.23
5,Nc1ccc(S(=O)(=O)Nc2ncccn2)cc1 [Sulfadiazine],inactive: 1.32
6,CO[C@@]1(NC(=O)C(C(=O)O)c2ccc(O)cc2)C(=O)N2C(C(=O)O)=C(CSc3nnnn3C)CO[C@@H]21 (stereo partly drawn) [Moxalactam disodium salt],inactive: 1.41
7,C#C[C@]1(O)CC[C@H]2[C@@H]3CCC4=CC(=O)CC[C@@H]4[C@H]3CC[C@@]21C [Norethindrone],inactive: 1.82
8,COC(=O)C1=C(C)NC(C)=C(C(=O)OC)C1c1ccccc1[N+](=O)[O-] [Nifedipine],inactive: 0.785
9,CCN(CC)CCOC(=O)C1(c2ccc([N+](=O)[O-])cc2)CCCC1 [Nitrocaramiphen hydrochloride],inactive: 1.1
10,Clc1ccccc1CN1CCc2sccc2C1 [Ticlopidine hydrochloride],inactive: 1.28
11,Cc1cc(NC(=O)C2=C(O)c3ccccc3S(=O)(=O)N2C)no1 [Isoxicam],inactive: 1.57
12,Cc1cc(C(C)(C)CC(C)(C)C)ccc1OCCOCC[N+](C)(C)Cc1ccccc1 [Methyl benzethonium chloride],inactive: 1.89
13,CN(C)CCCN1c2ccccc2CCc2ccc(Cl)cc21 [Clomipramine hydrochloride],inactive: 1.16
14,CO[C@@]1(NC(=O)C2SC(=C(C(N)=O)C(=O)O)S2)C(=O)N2C(C(=O)O)=C(CSc3nnnn3C)CS[C@@H]21 (stereo partly drawn) [Cefotetan],inactive: 1.46
15,CCN(CC)CCCC(C)Nc1c2ccc(Cl)cc2nc2ccc(OC)cc12 (stereo not drawn) [Quinacrine dihydrochloride dihydrate],inactive: 1.13
16,CCCCCCCCCCCCCCCC[N+](C)(C)CCN(Cc1ccc(OC)cc1)c1ncccn1 [Thonzonium bromide],inactive: 0.398
17,CC(C)NCC(O)c1ccc(NS(C)(=O)=O)cc1 (stereo not drawn) [Sotalol hydrochloride],inactive: 0.643
18,C#C[C@]1(O)CC[C@H]2[C@@H]3CCc4cc(OC)ccc4[C@H]3CC[C@@]21C [Ethynylestradiol 3-methyl ether],inactive: 1.9
19,CC(=O)N1CCN(c2ccc(OCC3COC(Cn4ccnc4)(c4ccc(Cl)cc4Cl)O3)cc2)CC1 (stereo not drawn) [Ketoconazole],inactive: 0.443
20,CCOC(=O)Nc1ccc2c(c1)N(C(=O)CCN1CCOCC1)c1ccccc1S2 [Moricizine hydrochloride],inactive: 1.3
21,COc1cc2c(cc1OC)-c1cc3ccc(OC)c(OC)c3c[n+]1CC2 [Palmatine chloride],active: 3.62

row,Structure (SMILES),cell-surface Lgr5 expression
1,COC(=O)[C@H]1[C@H]2C[C@@H]3c4[nH]c5cc(OC)ccc5c4CCN3C[C@H]2C[C@@H](OC(=O)c2cc(OC)c(OC)c(OC)c2)[C@@H]1OC [Reserpine],inactive: 2.17
2,CNC(=C[N+](=O)[O-])NCCSCc1ccc(CN(C)C)o1 [Ranitidine hydrochloride],inactive: 1
3,CN1CCN(C(c2ccccc2)c2ccc(Cl)cc2)CC1 (stereo not drawn) [(1-[(4-Chlorophenyl)phenyl-methyl]-4-methylpiperazine)],active: 2.62
4,O=C(N/N=C/c1ccc([N+](=O)[O-])o1)c1ccc(O)cc1 [Nifuroxazide],inactive: 2.22
5,"O=C1C=CC(=O)c2c1ccc1c2ccc2ccccc21 [Chrysene-1,4-quinone]",active: 2.81
6,CCC(=O)[C@@]1(C)[C@H](C)C[C@H]2[C@@H]3CCC4=CC(=O)C=C[C@]4(C)[C@H]3[C@@H](O)C[C@@]21C [Rimexolone],inactive: 2.26
7,CCc1cc(C(N)=S)ccn1 [Ethionamide],inactive: 0.859
8,CN(N=O)C(=O)N[C@@H](C=O)[C@@H](O)[C@H](O)[C@H](O)CO [Streptozotocin],inactive: 2.32
9,CNCCC=C1c2ccccc2CCc2ccccc21 [Nortriptyline hydrochloride],inactive: 1.28
10,C[C@H]1[C@H](NC(=O)/C(=N\OC(C)(C)C(=O)O)c2csc(N)n2)C(=O)N1S(=O)(=O)O [Aztreonam],inactive: 2.49
11,Cc1ccc(/C(=C\CN2CCCC2)c2ccccn2)cc1 [Triprolidine hydrochloride],inactive: 1.63
12,CC(C)(O/N=C(\C(=O)N[C@@H]1C(=O)N2C(C(=O)[O-])=C(C[n+]3ccccc3)CS[C@H]12)c1csc(N)n1)C(=O)O [Ceftazidime pentahydrate],inactive: 2.03
13,C[C@]12C=CC(=O)C=C1CC[C@@H]1[C@@H]2C(=O)C[C@@]2(C)[C@H]1CC[C@]2(O)C(=O)CO [Prednisone],inactive: 1.94
14,COc1cc(C)nc(-n2nc(C)cc2OC)n1 [Epirizole],inactive: 1.33
15,CS(=O)(=O)Nc1ccc([N+](=O)[O-])cc1Oc1ccccc1 [Nimesulide],inactive: 1.75
16,CCn1cc(C(=O)O)c(=O)c2cc(F)c(N3CCNC(C)C3)c(F)c21 (stereo not drawn) [Lomefloxacin hydrochloride],inactive: 0.695
17,CNC(=C[N+](=O)[O-])NCCSCc1csc(CN(C)C)n1 [Nizatidine],inactive: 1.91
18,CC[C@]12CCCN3CCc4c(n(c5ccccc45)C(=O)C1)[C@@H]32 [Eburnamonine (-)],inactive: 1.87
19,CC(=O)Oc1cc(C(C)C)c(OCCN(C)C)cc1C [Moxisylyte hydrochoride],inactive: 1.53
20,C[C@@H]1C(=O)O[C@H]2C[C@@]34[C@H]5C[C@@H](C(C)(C)C)[C@]36[C@@H](OC(=O)[C@@H]6O)O[C@@]4(C(=O)O5)[C@]21O [Ginkgolide A],inactive: 0.911
21,C[N+]1(C)CCC(=C(c2ccccc2)c2ccccc2)CC1 [Diphemanil methylsulfate],inactive: 1.25

# Individual results from above.
# Under cell-surface Lgr5 expression, CS(=O)(=O)Nc1ccc([N+](=O)[O-])cc1Oc1ccccc1 [Nimesulide] reads inactive: 1.75
# Under cell-surface Lgr5 expression, O=C1C=CC(=O)c2c1ccc1c2ccc2ccccc21 [Chrysene-1,4-quinone] reads active: 2.81
